Out of some 31,000 sequences screened, about 1,400 (4.5%) were called active.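 How the source made its calls: active means median seed-adjusted z-score above 1 or below -1; inactive means the rest.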 The list shows a part of the results.
Assay: Novel Modifiers of Survival Motor Neuron (SMN) Protein: Gene Identification via Genome-wide siRNA Screen;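 further: luminescence tracks full-length SMN protein made from the SMN2 reporter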
Settings: HEK293T SMN2-luciferase reporter, siRNA knockdown, 72 h; actives lie on both sides
Method in brief: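 Each of three siRNAs per gene is reverse-transfected (1 pmol) into reporter HEK293T cells whose luciferase output tracks SMN protein level. After 72 h culture, ONE-Glo luminescence is control-normalized, log10-transformed and MAD-standardized; Common Seed Analysis deprioritizes seed-driven hits.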

Row | Sequence | median seed-adjusted z-score
1 | GGAGUAUUUCGAGAAGCAUTT against RHOBTB2 | inactive: -0.139
2 | GCAGUUCGCUUGUAUCGUATT against OGT | inactive: 0.411
3 | CGUCAGCUGUUUGUCCCAUTT against FLAD1 | inactive: 0.367
4 | CCCUCCAUGGAAUAGAAUATT against FCER1A | inactive: -0.0293
5 | GGAGAUCUAUUACCAUGGATT against ARRB1 | inactive: -0.205
6 | GGAAGAAGAUCAUAGAGAATT against TRPV4 | inactive: -0.73
7 | GAAAGAGUACGAGAAUCUATT against TRAIP | inactive: -0.018
8 | AGACAGACUCGAAACAGAATT against WDR31 | inactive: 0.796
9 | GGACGAGACCUACCGAAAATT against LSM11 | inactive: -0.873
10 | CGUACAAAGAUGACGCGGATT against SYNJ2 | inactive: 0.0202
11 | GAAGGAAGAGUAUCAAAAATT against CA12 | inactive: -0.0119
12 | AGAUUUCGCAGUUCAGGAATT against COQ7 | inactive: 0.159
13 | CGAUCAACUCCUUAAAGGATT against FLRT2 | inactive: -0.00573
14 | CGAGGCUCAUCAUAUCUCATT against RAVER2 | inactive: -0.258
15 | AACUGAAAUCGGUAAAGGATT against XRCC3 | inactive: 0.332
16 | CCAGGACACUAGAGCAAGATT against DNAJC17 | inactive: 0.751
17 | GGUACUUCAUAGAUUGGAATT against CDH12 | inactive: -0.0663
18 | AGGUGAUCAUGGAUCGUCATT against TRIM63 | inactive: -0.376
19 | GCAUCGAGAUCCACGAAGATT against PITPNM3 | inactive: -0.0378
20 | CUGAAAAAGUGUUAGAUGATT against HTATSF1 | inactive: -0.411
21 | GAAAUGAAAUUGGAGAUUATT against PCDHGC3 | inactive: 0
22 | CCAGCUCUUCCAUACAAUATT against RAB9A | inactive: 0.247
23 | ACUUUGUACUUUUGCCCAATT against TLX3 | inactive: 0.0771
24 | CCGCUGGUGUACUACUUUATT against LPAR5 | inactive: 0.0711
25 | GCACCUUCCGCGUCAUGUUTT against BTBD2 | inactive: 0.0303
26 | GAGUGGACUGGGCAAAUCATT against 3-Sep | inactive: 0.0683
27 | GCUUCACCAUCGAAUCCAATT against FLT4 | inactive: -0.861

A run of entries from further up, as a working copy:
Row | Sequence | median seed-adjusted z-score
3 | CGUCAGCUGUUUGUCCCAUTT against FLAD1 | inactive: 0.367
4 | CCCUCCAUGGAAUAGAAUATT against FCER1A | inactive: -0.0293
5 | GGAGAUCUAUUACCAUGGATT against ARRB1 | inactive: -0.205
6 | GGAAGAAGAUCAUAGAGAATT against TRPV4 | inactive: -0.73
7 | GAAAGAGUACGAGAAUCUATT against TRAIP | inactive: -0.018
8 | AGACAGACUCGAAACAGAATT against WDR31 | inactive: 0.796
9 | GGACGAGACCUACCGAAAATT against LSM11 | inactive: -0.873
10 | CGUACAAAGAUGACGCGGATT against SYNJ2 | inactive: 0.0202
11 | GAAGGAAGAGUAUCAAAAATT against CA12 | inactive: -0.0119
12 | AGAUUUCGCAGUUCAGGAATT against COQ7 | inactive: 0.159
13 | CGAUCAACUCCUUAAAGGATT against FLRT2 | inactive: -0.00573
14 | CGAGGCUCAUCAUAUCUCATT against RAVER2 | inactive: -0.258
15 | AACUGAAAUCGGUAAAGGATT against XRCC3 | inactive: 0.332
16 | CCAGGACACUAGAGCAAGATT against DNAJC17 | inactive: 0.751
17 | GGUACUUCAUAGAUUGGAATT against CDH12 | inactive: -0.0663
18 | AGGUGAUCAUGGAUCGUCATT against TRIM63 | inactive: -0.376

Continuation.

Row | Sequence | median seed-adjusted z-score
28 | CCGCUGCAAGGGUAGUAUATT against CDK9 | inactive: 0.901
29 | GGAUGAUGUUUGUGCGCAATT against PRDM4 | inactive: 0.0804
30 | GCAUAUAACCAAAGGCGGATT against HSD17B4 | inactive: 0
31 | GCAUAUCCUACUUACCCAATT against DAZL | inactive: -0.441
32 | CGAGGACGUGGGUCAGAAATT against ITPKA | inactive: -0.136
33 | GGAUGUGAUUGAGCAGUAUTT against KCNQ3 | inactive: 0.313
34 | GGCUGAUUCUGGAAGUUCUTT against SPP1 | inactive: -0.293
35 | GCAGCAAGCUCUGUCCCAATT against PEF1 | inactive: 0.651
36 | CCGUACAAUUGUAAAGAAUTT against ZNF230 | inactive: -0.203
37 | GGCAGAUCCUGACCUUUGATT against PRMT7 | inactive: 0.204
38 | GGACAACUAUGGUAAGAAATT against TCF7L1 | inactive: -0.251
39 | GCAUGGUCUUUCUACUUGUTT against TUBB2A | active: 1.03
40 | GCACAAUAAGAUCCUAUAUTT against B3GNT1 | inactive: 0.0931
41 | GGGCUUGUCUUCAAUGUUATT against SLCO1B1 | inactive: 0.127
42 | AGGAGAACAUGAUCGUGUATT against NADK | inactive: -0.201
43 | GUACGAGUGUUCUCCAGAATT against CREB3L3 | inactive: -0.076
44 | GCAUGUGCUUUAAACACCATT against TRIM52 | inactive: 0.00966
45 | GUCAGUUACAGAUUACCUATT against MTMR7 | inactive: -0.207
46 | CAUCCGUUCCAUACAUGUATT against AEBP2 | inactive: -0.212
47 | GCAUGUCCCUCAAGGUGCATT against ZBTB47 | inactive: 0
48 | GGUUCGAGCAGCUCAAGAATT against GLI2 | inactive: -0.796
49 | UGGAAGAACAUGAAUAUAATT against ACSM2A | inactive: -0.178
50 | GAGUCGCAUUUCAAUUAGATT against PDK1 | inactive: -0.00904
51 | CAUUUAAACCGAAACUCUATT against RBBP5 | inactive: 0.169
52 | GCAACAUGAUGAGUAAAGATT against PANK1 | inactive: -0.329
53 | GGCCUCGCAUUGUAUAUGATT against LRRK1 | inactive: 0.257
